Results deposited as PubChem BioAssay AID652272 (Drosophila RNAi Screening Center, 2013).

Screen: 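Finding fly genes that regulate Hedgehog signal transduction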 (primary screen)
Cell system: Drosophila clone 8 (Cl8) cells
Reagent: long dsRNA against Drosophila genes
Read-out: 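Firefly light from a Hedgehog-responsive ptc promoter reporter and Renilla reference light, both read on a plate reader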
Direction: firefly Hh reporter signal: higher = more ptc reporter light; Renilla reference signal: higher = more Renilla control light
Active means: 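Called a hit if the two-replicate mean z-score lies below -2 or above +3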
Calls: active = hit: reporter lowered or raised; inactive = not a hit
The screen tested about 21,000 reagents; this is a random part of those with a known target gene and a result. Over the whole deposit, 503 (2.4%) were called active. 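Raw plate light values, not normalised; calls rest on replicate z-scores that were not deposited; hits include reporter decreases as well as increases.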 A number with no mark means an inactive call. Reagents against one gene are numbered here. Names joined by + are all predicted targets of the reagent. Not given: the amount of reagent, the time to read-out.

| gene | dsRNA no. | firefly Hh reporter signal, replicate 1 | firefly Hh reporter signal, replicate 2 | firefly Hh reporter signal, replicate 3 | Renilla reference signal, replicate 1 | Renilla reference signal, replicate 2 |
| --- | --- | --- | --- | --- | --- | --- |
| CG31740 | 1 | 1.39e5 | 2.60e5 | – | 4203 | 12370 |
| CG4955 | 1 | 1.02e5 | 1.53e5 | – | 2315 | 2870 |
| Surf4 | 1 | 60082 | 70256 | – | 2018 | 1748 |
| CG11596 | 1 | 1.03e5 | 68896 | – | 2176 | 2160 |
| Samuel | 1 | 77834 | 33651 | – | 2171 | 2663 |
| Samuel | 2 | 49440 | 20656 | – | 1444 | 1920 |
| Samuel | 3 | 1.74e5 | 85952 | – | 5079 | 8413 |
| Taf4 | 1 | 47704 | 30010 | – | 2067 | 1353 |
| CG30046 | 1 | 1.25e5 | 46576 | – | 3397 | 3328 |
| CG15254 | 1 | 1.52e5 | 5.45e5 | 76050 | 3970 | 28258 |
| CG15914 | 1 | 52858 | 1.51e5 | – | 1686 | 7190 |
| ham | 1 | 1.47e5 | 3.39e5 | – | 3716 | 14762 |
| ham | 2 | 74449 | 60288 | – | 1736 | 5453 |
| ham | 3 | 1.51e5 | 93041 | – | 4320 | 8477 |
| ham | 4 | 1.16e5 | 76899 | – | 2339 | 7061 |
| sqz | 1 | 5.47e5 | 69633 | – | 31440 | 2064 |
| CG12009 | 1 | 94059 | 60104 | – | 4107 | 2473 |
| hoe2 | 1 | 1.17e5 | 52752 | – | 2998 | 5146 |
| CG4882 | 1 | 59788 | 48906 | – | 1274 | 4220 |
| CG13067 | 1 | 1.81e5 | – | – | 5834 | 5207 |
| CG7248 | 1 | 57481 | 57788 | 65511 | 4192 | 4128 |
| JMJD7 | 1 | 6.11e5 | 1.31e5 | – | 5492 | 5492 |
| Uggt | 1 | 86092 | 58048 | – | 2873 | 2440 |
| CG33627 | 1 | 1.12e5 | 2.01e5 | – | 3296 | 9996 |
| Bicra | 1 | 64299 | 44528 | – | 3416 | 1472 |
| asRNA:CR30267 + CG42260 | 1 | 1.34e5 | 1.94e5 | – | 3672 | 9465 |
| CG13605 | 1 | 99009 | 57137 | – | 3964 | 2269 |

The list goes on; the last 2 above are carried over.
| gene | dsRNA no. | firefly Hh reporter signal, replicate 1 | firefly Hh reporter signal, replicate 2 | firefly Hh reporter signal, replicate 3 | Renilla reference signal, replicate 1 | Renilla reference signal, replicate 2 |
| --- | --- | --- | --- | --- | --- | --- |
| asRNA:CR30267 + CG42260 | 1 | 1.34e5 | 1.94e5 | – | 3672 | 9465 |
| CG13605 | 1 | 99009 | 57137 | – | 3964 | 2269 |
| Cpr62Ba | 1 | 64229 | 58071 | – | 2858 | 4183 |
| CG18493 | 1 | 5.79e5 | 85322 | – | 28676 | 2400 |
| eEF2 | 1 | 60967 | 53312 | – | 2018 | 5153 |
| CG14069 | 1 | 1.09e5 | 67424 | – | 2964 | 5186 |
| Acsf2 | 1 | 1.07e5 | 45165 | – | 3643 | 4213 |
| Ugt302E1 | 1 | 55897 | 95469 | – | 1584 | 2744 |
| toe | 1 | 88508 | 2.28e5 | – | 2712 | 8954 |
| toe | 2 | 76420 | 43877 | 25056 | 1720 | 1661 |
| CG31198 | 1 | 1.16e5 | 66123 | – | 5463 | 3026 |
| pav | 1 | 77476 | 41011 | – | 2249 | 171 |
| Cp36 | 1 | 88144 | 2.01e5 | – | 3053 | 8698 |
| RasGAP1 | 1 | 19938 | 63043 | 57411 | 7040 | 4011 |
| CG13102 | 1 | 71506 | 55066 | – | 2341 | 4492 |
| CG32631 | 1 | 1.44e5 | 1.22e5 | – | 2560 | 2356 |
| CG43666 + CG43667 + CG43668 | 1 | 1.68e5 | 3.68e5 | – | 4528 | 14960 |
| CG43666 + CG43667 + CG43668 | 2 | 1.11e5 | 62170 | – | 2636 | 5013 |
| Rab4 + CG42239 | 1 | 96807 | 1.57e5 | – | 2467 | 7250 |
| CG14120 | 1 | 27579 | 35126 | 54740 | 4208 | 3651 |
| CG9536 | 1 | 62472 | 76677 | – | 2912 | 2755 |
| Stim | 1 | 74315 | 61521 | – | 1233 | 1269 |
| Tsp42Ep | 1 | 95808 | 67330 | – | 4025 | 3033 |
| CG3345 | 1 | 53520 | 61649 | – | 2453 | 2880 |
| CG15731 | 1 | 1.43e5 | 3.52e5 | – | 5122 | 14165 |
| Cpr67Fa2 | 1 | 79448 | 56202 | 69189 | 5664 | 5620 |
| CG7564 | 1 | 80716 | – | – | 6017 | 3272 |
| E23 | 1 | 42744 | 17237 | – | 1322 | 1744 |
| E23 | 2 | 79861 | 44704 | – | 2344 | 4995 |
| CG42326 | 1 | 1.23e5 | 66484 | – | 2854 | 5984 |
| CG42326 | 2 | 70345 | 41800 | – | 1943 | 3701 |
| CG17744 | 1 | 77376 | 87510 | – | 7368 | 5952 |
